Reference: article PMC3877063
Results are given in words; binding and its absence hold for the method and conditions named. Some entries that bind do so weakly or less than the wild type.

Amino acid sequences for entries named in this document (tags omitted). A change or cut given only in a name is not applied to a line headed by its entry. Residues count along the entry.
UniProt O00206: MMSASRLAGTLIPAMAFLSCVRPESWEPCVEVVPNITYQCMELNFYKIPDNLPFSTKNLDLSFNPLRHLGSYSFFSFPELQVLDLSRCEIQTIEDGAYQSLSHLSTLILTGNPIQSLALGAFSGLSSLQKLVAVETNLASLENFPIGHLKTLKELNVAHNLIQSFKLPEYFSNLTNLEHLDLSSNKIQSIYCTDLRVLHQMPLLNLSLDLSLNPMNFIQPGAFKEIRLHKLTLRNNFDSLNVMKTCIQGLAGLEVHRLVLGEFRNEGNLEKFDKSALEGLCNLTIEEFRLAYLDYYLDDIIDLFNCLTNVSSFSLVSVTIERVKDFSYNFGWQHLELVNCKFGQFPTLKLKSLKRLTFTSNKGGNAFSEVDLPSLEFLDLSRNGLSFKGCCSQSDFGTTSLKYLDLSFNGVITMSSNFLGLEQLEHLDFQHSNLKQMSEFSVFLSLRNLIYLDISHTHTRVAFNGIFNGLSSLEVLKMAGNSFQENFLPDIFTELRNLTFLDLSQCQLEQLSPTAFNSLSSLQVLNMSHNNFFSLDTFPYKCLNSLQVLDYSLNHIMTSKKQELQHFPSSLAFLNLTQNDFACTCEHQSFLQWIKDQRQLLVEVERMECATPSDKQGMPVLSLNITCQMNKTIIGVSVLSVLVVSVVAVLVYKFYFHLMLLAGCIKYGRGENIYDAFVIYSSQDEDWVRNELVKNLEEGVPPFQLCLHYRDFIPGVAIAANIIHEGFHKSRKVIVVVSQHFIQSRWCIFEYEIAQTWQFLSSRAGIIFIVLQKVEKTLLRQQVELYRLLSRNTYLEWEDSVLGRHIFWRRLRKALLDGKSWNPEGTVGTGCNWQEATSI
Toll-like receptor 4 (TLR4) expressed on PMA-activated THP-1 cells (human (endogenous in THP-1)): residues 24-839 of O00206
deglycosylated sTLR4: residues 24-631 of O00206
UniProt O60603: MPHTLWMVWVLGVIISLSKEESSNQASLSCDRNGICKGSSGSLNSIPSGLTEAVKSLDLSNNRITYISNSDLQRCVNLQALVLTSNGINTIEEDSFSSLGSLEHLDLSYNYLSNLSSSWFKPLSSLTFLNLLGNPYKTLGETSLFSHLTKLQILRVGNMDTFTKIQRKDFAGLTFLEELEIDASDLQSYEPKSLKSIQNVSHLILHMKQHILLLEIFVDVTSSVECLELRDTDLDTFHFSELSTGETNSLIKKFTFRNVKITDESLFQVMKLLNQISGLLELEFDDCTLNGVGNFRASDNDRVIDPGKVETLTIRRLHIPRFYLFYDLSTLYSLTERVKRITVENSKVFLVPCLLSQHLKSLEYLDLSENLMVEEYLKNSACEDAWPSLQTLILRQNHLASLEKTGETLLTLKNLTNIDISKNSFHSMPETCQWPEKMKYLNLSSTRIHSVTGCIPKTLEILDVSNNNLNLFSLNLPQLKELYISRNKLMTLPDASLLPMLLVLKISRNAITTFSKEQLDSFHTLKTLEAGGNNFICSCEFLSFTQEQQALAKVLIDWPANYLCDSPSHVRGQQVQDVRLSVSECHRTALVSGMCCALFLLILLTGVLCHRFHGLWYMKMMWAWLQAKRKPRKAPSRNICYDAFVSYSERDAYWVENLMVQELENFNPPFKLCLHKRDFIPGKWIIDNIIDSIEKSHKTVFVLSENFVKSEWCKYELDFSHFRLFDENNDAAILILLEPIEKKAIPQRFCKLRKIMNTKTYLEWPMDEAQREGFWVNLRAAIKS
deglycosylated sTLR2: residues 21-587 of O60603
UniProt P11226, residues 21-248: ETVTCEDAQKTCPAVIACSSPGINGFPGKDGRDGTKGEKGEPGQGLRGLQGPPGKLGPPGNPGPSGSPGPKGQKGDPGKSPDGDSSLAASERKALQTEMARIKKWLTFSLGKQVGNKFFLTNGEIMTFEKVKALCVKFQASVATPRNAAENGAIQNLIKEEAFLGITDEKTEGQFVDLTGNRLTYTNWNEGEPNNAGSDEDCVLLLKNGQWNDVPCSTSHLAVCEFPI

Legend:
[1] = molecular target: soluble form of recombinant TLR4 extracellular domain (sTLR4) (UniProt O00206); assay: ELISA; sTLR2 or sTLR4 (10 ug/ml, 50 ul/well) coated onto microtiter wells; MBL in 10 mM Hepes pH 7.4, 0.15 M NaCl, 5 mM CaCl2, 5 mg/ml BSA, 37°C for 5 h; detected with anti-MBL mAb HYB 131-11; both purified
[2] = molecular target: recombinant soluble form of extracellular TLR2 domain (sTLR2) (UniProt O60603); assay: as above
[3] = molecular target: deglycosylated sTLR4 (UniProt O00206); assay: co-IP; 2 ug MBL incubated with 2 ug sTLR2 or sTLR4 at 37°C for 2 h in 20 mM Tris pH 7.4, 0.15 M NaCl, 5 mM CaCl2, 3 mg/ml BSA; precipitated with anti-sTLR2 or anti-sTLR4 pAb and protein G-Sepharose; blot with anti-human MBL mAb HYB 131-11; both purified
[4] = molecular target: deglycosylated sTLR2 (UniProt O60603); assay: as above
[5] = molecular target: Toll-like receptor 4 (TLR4) expressed on PMA-activated THP-1 cells (human (endogenous in THP-1)) (UniProt O00206); assay: flow cytometry on cells; PMA-activated THP-1 cells in Tris-buffered saline pH 7.4, 5 mM CaCl2, 1% BSA; preincubated 10 min with anti-TLR2 (TL2.1) or anti-TLR4 (HTA125) mAb or isotype control, then biotinylated MBL, ExtrAvidin-FITC; only the binder purified
[6] = molecular target: Toll-like receptor 2 (TLR2) expressed on PMA-activated THP-1 cells (human (endogenous in THP-1)) (UniProt O60603); assay: as above

Measured: binding

Mannan-binding lectin (MBL), purified from human plasma (from UniProt P11226 21-248)
binds: [1] | [2] | [3] | [4]

biotinylated MBL (from UniProt P11226 21-248)
binds: [5] | [6]
